# In patent publication US11046680B1, “Heteroaryl-substituted triazoles as APJ receptor agonists” (priority 2016, dated 2021):
# The chains behind the UniProt entries cited, without tags or fusion partners.
# UniProt P35414, whole entry: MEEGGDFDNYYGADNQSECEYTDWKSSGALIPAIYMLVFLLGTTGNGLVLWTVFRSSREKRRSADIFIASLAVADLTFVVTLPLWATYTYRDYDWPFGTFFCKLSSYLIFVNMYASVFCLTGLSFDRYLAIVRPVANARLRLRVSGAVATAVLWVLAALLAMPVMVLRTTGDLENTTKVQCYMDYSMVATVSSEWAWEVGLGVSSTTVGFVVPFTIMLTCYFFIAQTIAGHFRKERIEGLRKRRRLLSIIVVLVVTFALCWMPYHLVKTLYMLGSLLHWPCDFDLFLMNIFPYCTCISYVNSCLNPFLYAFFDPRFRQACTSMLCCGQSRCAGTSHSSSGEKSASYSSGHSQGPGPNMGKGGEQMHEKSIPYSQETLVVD
# Target: human APJ receptor (Homo sapiens (Human), UniProt P35414)
# Conditions: read-out: Activity hAPJ SPA EC50 IP; [35S]GTPγS binding, CHO membranes expressing human APJ receptor
compound,measurement,value
COc1cccc(OC)c1-n1c(NS(=O)(=O)C2CC(O)CN(c3ncc(F)cn3)C2)nnc1-c1nc(C)cs1 (stereo not shown),EC50,2.5 nM

# The structures given here were assigned with low confidence; some may be wrong.
